Source: publication PMC8209508
These are yes or no findings as the source states them, for the method shown. Binding seen in cells or lysates may run through a third protein. Some binding calls cover weakened binding; strength is not graded here.

By UniProt entry, the sequences of proteins in these tests, tags left out. Where a name states a change or a piece, a line headed by the entry shows the natural chain unless it says otherwise.
UniProt Q16363: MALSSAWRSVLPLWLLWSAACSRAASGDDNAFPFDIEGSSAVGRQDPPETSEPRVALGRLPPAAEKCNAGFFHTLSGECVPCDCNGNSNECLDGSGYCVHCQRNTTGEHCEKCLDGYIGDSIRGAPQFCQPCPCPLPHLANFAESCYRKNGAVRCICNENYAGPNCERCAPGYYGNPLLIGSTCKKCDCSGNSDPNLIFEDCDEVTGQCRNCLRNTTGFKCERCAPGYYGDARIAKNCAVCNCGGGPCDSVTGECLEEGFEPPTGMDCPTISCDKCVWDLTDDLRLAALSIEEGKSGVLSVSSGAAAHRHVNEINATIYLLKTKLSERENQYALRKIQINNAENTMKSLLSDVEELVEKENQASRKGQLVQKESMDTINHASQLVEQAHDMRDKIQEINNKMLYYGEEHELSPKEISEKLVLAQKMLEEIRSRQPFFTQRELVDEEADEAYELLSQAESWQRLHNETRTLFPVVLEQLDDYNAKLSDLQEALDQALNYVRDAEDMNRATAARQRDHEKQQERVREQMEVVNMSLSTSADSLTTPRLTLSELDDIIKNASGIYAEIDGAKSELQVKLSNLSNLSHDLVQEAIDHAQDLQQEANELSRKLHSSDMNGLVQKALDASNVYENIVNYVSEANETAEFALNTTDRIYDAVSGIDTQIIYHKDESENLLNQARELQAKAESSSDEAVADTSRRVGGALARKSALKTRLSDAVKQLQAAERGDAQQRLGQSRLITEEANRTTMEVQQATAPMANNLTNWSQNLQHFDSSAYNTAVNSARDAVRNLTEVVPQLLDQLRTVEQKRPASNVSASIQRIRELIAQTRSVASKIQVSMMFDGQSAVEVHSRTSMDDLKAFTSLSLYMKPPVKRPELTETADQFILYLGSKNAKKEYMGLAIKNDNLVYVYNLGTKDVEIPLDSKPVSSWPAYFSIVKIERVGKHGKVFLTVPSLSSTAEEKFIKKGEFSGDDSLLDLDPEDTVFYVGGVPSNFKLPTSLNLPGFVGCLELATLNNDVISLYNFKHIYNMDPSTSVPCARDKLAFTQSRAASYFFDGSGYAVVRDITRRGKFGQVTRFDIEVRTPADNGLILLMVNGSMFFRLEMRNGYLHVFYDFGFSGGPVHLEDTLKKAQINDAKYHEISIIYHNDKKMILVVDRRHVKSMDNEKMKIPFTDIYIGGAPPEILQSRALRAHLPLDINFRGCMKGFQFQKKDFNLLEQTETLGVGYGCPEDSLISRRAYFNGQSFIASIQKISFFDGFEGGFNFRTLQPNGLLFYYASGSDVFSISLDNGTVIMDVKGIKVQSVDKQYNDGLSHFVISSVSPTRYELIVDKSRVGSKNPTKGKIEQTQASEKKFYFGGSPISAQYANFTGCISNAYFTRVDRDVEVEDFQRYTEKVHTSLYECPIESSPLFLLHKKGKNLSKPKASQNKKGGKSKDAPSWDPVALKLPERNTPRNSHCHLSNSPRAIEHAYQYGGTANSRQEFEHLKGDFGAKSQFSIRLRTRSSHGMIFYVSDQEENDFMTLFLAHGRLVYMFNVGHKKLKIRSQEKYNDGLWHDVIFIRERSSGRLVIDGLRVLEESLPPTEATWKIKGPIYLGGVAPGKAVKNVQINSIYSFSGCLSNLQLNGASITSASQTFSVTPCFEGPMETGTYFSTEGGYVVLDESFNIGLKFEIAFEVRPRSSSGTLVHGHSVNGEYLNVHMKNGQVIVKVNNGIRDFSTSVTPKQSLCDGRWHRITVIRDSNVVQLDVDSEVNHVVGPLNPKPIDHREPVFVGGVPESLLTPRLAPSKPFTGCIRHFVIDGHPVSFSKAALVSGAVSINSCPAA
UniProt P07942: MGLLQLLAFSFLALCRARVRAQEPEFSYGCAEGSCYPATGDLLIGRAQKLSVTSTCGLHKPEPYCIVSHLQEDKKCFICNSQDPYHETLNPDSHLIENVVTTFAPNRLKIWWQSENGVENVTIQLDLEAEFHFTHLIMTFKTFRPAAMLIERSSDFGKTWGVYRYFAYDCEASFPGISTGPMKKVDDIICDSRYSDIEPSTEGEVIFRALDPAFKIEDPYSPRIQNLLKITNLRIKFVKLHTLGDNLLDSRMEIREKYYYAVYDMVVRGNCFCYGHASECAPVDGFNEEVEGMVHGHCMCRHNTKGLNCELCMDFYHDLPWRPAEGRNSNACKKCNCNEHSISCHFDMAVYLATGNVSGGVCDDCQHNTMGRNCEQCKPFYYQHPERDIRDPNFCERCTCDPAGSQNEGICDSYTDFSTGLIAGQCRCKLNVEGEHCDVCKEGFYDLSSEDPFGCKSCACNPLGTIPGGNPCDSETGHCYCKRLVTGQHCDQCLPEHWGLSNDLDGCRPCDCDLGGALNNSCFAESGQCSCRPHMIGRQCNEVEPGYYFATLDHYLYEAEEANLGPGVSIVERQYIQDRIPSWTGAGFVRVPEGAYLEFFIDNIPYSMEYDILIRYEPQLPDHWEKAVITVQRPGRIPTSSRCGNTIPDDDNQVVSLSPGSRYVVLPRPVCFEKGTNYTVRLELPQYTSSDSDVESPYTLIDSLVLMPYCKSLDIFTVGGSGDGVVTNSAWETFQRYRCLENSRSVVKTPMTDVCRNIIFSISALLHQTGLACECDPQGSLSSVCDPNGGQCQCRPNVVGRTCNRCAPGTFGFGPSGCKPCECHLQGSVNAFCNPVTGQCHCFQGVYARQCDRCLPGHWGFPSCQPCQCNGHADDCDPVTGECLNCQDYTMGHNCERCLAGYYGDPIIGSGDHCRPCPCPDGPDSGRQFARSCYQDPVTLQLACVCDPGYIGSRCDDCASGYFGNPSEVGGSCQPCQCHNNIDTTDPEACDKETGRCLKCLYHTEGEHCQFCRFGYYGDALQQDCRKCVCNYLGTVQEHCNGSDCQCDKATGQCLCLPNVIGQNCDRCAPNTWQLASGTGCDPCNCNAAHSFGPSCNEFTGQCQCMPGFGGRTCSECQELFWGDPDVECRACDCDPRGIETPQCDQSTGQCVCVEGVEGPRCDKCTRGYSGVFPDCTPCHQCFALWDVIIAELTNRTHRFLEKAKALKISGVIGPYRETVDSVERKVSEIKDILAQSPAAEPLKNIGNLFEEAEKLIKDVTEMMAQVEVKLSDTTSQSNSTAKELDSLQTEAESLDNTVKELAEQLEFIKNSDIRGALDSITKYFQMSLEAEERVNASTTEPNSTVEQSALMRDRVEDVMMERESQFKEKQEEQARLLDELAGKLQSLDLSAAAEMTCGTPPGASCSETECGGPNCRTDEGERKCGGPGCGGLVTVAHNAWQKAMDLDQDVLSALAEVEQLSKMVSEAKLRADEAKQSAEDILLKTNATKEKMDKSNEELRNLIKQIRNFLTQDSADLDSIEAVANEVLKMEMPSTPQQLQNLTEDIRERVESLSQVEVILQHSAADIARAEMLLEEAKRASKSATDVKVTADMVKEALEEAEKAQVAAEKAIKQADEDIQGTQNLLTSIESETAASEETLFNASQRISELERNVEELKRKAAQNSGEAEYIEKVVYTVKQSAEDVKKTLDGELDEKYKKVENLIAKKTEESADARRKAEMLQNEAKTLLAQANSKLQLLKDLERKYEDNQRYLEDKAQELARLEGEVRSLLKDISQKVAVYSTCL
UniProt P11047: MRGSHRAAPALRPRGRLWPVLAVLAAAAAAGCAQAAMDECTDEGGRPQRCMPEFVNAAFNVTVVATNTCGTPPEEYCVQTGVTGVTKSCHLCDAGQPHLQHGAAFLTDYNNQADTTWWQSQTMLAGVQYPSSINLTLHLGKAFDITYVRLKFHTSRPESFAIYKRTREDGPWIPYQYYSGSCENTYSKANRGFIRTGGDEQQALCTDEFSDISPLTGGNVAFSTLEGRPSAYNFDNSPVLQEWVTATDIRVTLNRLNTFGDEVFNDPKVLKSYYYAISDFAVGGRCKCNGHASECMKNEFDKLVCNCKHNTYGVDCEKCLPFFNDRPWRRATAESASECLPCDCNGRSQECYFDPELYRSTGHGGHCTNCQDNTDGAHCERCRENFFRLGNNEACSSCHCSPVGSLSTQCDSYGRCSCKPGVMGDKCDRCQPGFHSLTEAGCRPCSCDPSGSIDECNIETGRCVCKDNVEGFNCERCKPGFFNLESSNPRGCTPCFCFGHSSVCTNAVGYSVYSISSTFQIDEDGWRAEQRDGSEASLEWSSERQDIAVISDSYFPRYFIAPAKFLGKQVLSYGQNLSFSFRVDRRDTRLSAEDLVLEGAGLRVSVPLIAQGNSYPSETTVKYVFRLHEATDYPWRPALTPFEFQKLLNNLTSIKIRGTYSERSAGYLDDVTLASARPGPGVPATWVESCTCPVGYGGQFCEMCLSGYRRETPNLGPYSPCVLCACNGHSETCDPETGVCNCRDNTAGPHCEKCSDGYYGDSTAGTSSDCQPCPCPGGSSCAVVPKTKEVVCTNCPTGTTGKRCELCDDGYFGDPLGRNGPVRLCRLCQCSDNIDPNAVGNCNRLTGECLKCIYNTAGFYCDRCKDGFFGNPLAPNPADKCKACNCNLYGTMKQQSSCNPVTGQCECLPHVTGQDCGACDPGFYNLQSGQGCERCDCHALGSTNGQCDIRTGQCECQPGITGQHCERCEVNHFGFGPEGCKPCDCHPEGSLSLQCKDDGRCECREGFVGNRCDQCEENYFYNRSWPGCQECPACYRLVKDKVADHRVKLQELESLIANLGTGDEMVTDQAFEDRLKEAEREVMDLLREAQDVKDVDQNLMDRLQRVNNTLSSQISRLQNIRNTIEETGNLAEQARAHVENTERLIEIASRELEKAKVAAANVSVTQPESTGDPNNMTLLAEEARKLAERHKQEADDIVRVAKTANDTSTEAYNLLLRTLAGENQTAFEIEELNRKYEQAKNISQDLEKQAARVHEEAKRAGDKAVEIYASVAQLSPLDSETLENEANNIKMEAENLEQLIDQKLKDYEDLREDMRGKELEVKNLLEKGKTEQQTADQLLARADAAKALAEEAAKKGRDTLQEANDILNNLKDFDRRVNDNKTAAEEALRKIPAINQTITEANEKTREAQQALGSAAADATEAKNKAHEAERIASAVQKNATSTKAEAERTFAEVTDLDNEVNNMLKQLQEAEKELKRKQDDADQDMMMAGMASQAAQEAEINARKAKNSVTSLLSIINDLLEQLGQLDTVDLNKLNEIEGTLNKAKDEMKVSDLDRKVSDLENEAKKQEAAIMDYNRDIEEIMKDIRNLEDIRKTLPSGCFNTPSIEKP

Columns and labels:
[1] = biological target: laminin-8 (α4/β1/γ1) (human (endogenous in the coculture of bone marrow MSCs of healthy donors with ARP-1 or RPMI8226)) (UniProt Q16363+P07942+P11047); assay: co-IP; lysates of ARP-1 or RPMI8226 myeloma cells cocultured with MSCs; agarose-immobilized antibody against integrin α6, laminin α4 or EGFR, 4°C overnight, six washes; Western blot; IgG as control
[2] = biological target: epidermal growth factor receptor (human (endogenous in the coculture of bone marrow MSCs of healthy donors with ARP-1 or RPMI8226)) (UniProt P00533); assay: as above

| binding [1] | binding [2] | Substance |
| --- | --- | --- |
| binds | – | epidermal growth factor receptor (from UniProt P00533 25-1210) |
| – | binds | laminin-8 (α4/β1/γ1) (from UniProt Q16363 25-1823; P07942 22-1786; P11047 34-1609) (complex) |
